# Reference: ChEMBL document CHEMBL1155281, “Synthesis, spectroscopic characterization and antibacterial activity of new cobalt(II) complexes of unsymmetrical tetradentate (OSN2) Schiff base ligands” (2009)
# Legend:
# Staphylococcus aureus = assay: Antibacterial activity against Staphylococcus aureus RITCC 1885 at 10 ug after overnight incubation by agar well diffusion method; format: functional, organism-based
# Pseudomonas aeruginosa = assay: Antibacterial activity against Pseudomonas aeruginosa RITCC 1547 at 10 ug after overnight incubation by agar well diffusion method; format: functional, organism-based
sequence,measurement,setting,value
GENTAMICIN,inhibition zone (IZ),Staphylococcus aureus,20 mm
same,inhibition zone (IZ),Pseudomonas aeruginosa,16 mm
